Data as given in PubChem BioAssay AID1671195 (Yale University, 2021).
Test: 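Genes whose knockdown alters LDL uptake in liver cancer cells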 (primary screen). Cells: human Huh7 hepatoma cells. Reagents: siRNA pool against human genes, 18 nM. Time to read-out: about 2 to 2.5 days of knockdown, then 8 h LDL uptake. Conditions: DiI-labelled LDL at 30 µg/ml for 8 h, in lipoprotein-deficient serum medium. Read-out: 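Per-cell DiI-LDL intensity by automated imaging; well means scaled to the plate median and given as a robust z-score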. Reading the numbers: robust z-score: higher = more LDL uptake after knockdown. Rule for the call: 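Active when two or more replicates show a robust z-score above 2 or below -2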.
The deposit covers about 22,000 reagents; shown is an unselected part. Over the whole deposit, about 1,510 (6.9%) are marked active. 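Active includes knockdowns raising or lowering LDL uptake; positive z-scores mean more uptake, negative mean less.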 Unmarked entries are inactive. The numbers tell different reagents against one gene apart. Reagent sequences are not shown.

no.	gene	reagent	robust z-score, replicate 1	robust z-score, replicate 2	robust z-score, replicate 3
1	FAABTP (fatty acid amide binding transmembrane protein)	1	1.6	2.8	1.75
2	NCBP2 (nuclear cap binding protein subunit 2)	1	-1.26	-1.31	-0.787
3	PDGFD (platelet derived growth factor D)	1	0.434	1.48	0.301
4	KRT34 (keratin 34)	1	-0.0355	1.13	0.782
5	PPA1 (inorganic pyrophosphatase 1)	1	0.0833	0.376	0.441
6	DNAAF2 (dynein axonemal assembly factor 2)	1	1.26	-0.675	-0.712
7	ZNF395 (zinc finger protein 395)	1	0.333	-0.263	0.586
8	LDLRAD2 (low density lipoprotein receptor class A domain containing 2)	1	1.29	1.39	1.25
9	GLUD1P4 (glutamate dehydrogenase 1 pseudogene 4)	1	-0.933	-1.05	-0.942
10	PCDHB12 (protocadherin beta 12)	1	1.51	1.31	1.48
11	OR5D13 (olfactory receptor family 5 subfamily D member 13)	1	0.288	0.577	0.0209
12	CCR4 (C-C motif chemokine receptor 4)	1	1.68	1.72	1.41
13	TSC22D4 (TSC22 domain family member 4)	1	-1.31	-0.956	-0.739
14	KRTAP4-7 (keratin associated protein 4-7)	1	-1.11	-1.21	-1.2
15	RBM39 (RNA binding motif protein 39)	1	-1.16	-0.635	-0.659
16	CRIM1 (cysteine rich transmembrane BMP regulator 1)	1	-0.0758	-0.0599	-0.032
17	ZNF607 (zinc finger protein 607)	1	0.812	0.475	0.0967
18	C4orf46 (chromosome 4 open reading frame 46)	1	0.111	0.242	0.0468
19	ITPK1 (inositol-tetrakisphosphate 1-kinase)	1	-0.0198	0.924	0.494
20	DHX40 (DEAH-box helicase 40)	1	0.344	1.18	0.677
21	SHC2 (SHC adaptor protein 2)	1	-1.25	-0.769	-0.618
22	VPS4B (vacuolar protein sorting 4 homolog B)	1	-0.408	-0.454	-0.228
23	FLJ31183 (retired record)	1	0.559	0.18	0.322
24	SLC17A6	1	-0.437	-0.502	-1.1
25	LINC02902 (long independently transcribed non-coding RNA 2902)	1	0.00126	-0.787	0.000804
26	ANKRD30BP3 (ANKRD30B pseudogene 3)	1	1.55	1.88	1.54
27	MS4A6E (membrane spanning 4-domains A6E)	1	1.41	0.415	0.675
28	OR5B21 (olfactory receptor family 5 subfamily B member 21)	1	3.9 (active)	4.01	3.7
29	PDE10A (phosphodiesterase 10A)	1	0.885	-0.69	0.382
30	IL36A (interleukin 36 alpha)	1	-0.826	1.63	0.88
31	NDUFB4 (NADH:ubiquinone oxidoreductase subunit B4)	1	0.799	0.293	0.42
32	ADAR (adenosine deaminase RNA specific)	1	0.804	2.63	1.44
33	EPHX3 (epoxide hydrolase 3)	1	-0.439	-1.09	-0.44
34	C2CD5 (C2 calcium dependent domain containing 5)	1	-0.583	0.82	0.499
35	WBP1L (WW domain binding protein 1 like)	1	1.45	0.65	2.08
36	CHST5 (carbohydrate sulfotransferase 5)	1	-0.864	-0.864	-1.1
37	MTRF1 (mitochondrial translation release factor 1)	1	-1.64	-1.56	-2.01
38	ZBTB37 (zinc finger and BTB domain containing 37)	1	-0.00143	-1.03	-0.43
39	OTOP1 (otopetrin 1)	1	-1.14	-0.552	-0.645
40	YDJC (YdjC chitooligosaccharide deacetylase homolog)	1	-0.716	-0.327	-0.754
41	COQ8A (coenzyme Q8A)	1	-0.475	-0.762	-0.552
42	ANP32D (acidic nuclear phosphoprotein 32 family member D)	1	-0.488	-0.502	0.26
43	LOC389831	1	0.438	0.906	0.701
44	H2AZ2P1 (H2AZ2 pseudogene 1)	1	1.2	0.978	0.955
45	FLJ10088 (retired record)	1	0.756	0.196	0.211
46	CDS2 (CDP-diacylglycerol synthase 2)	1	-1.1	0.753	-0.844
47	NPTX1 (neuronal pentraxin 1)	1	0.284	-0.702	-0.415
48	PSMB5 (proteasome 20S subunit beta 5)	1	1.31	1.53	1.6
49	SEPTIN14 (septin 14)	1	1.37	1.1	1.03
50	SREBF1 (sterol regulatory element binding transcription factor 1)	1	1.01	0.906	0.894
51	TRIB1 (tribbles pseudokinase 1)	1	-0.392	-0.364	0.0641
52	KLRC4 (killer cell lectin like receptor C4)	1	-0.136	-0.521	0.204
53	APLF (aprataxin and PNKP like factor)	1	-0.811	-1.53	-0.992
54	LOC402145 (retired record)	1	1.42	-0.587	0.402
55	ICAM5 (intercellular adhesion molecule 5)	1	0.842	-0.589	-0.516
56	DSG1 (desmoglein 1)	1	-0.512	-0.694	-0.583
57	RORA (RAR related orphan receptor A)	1	0.551	0.256	-0.197
58	ZNF343 (zinc finger protein 343)	1	-0.555	-0.55	-0.696
59	LMO4 (LIM domain only 4)	1	0.887	1.09	1.13
60	KIR3DL2	1	0.134	0.328	0.767
61	OR13G1 (olfactory receptor family 13 subfamily G member 1)	1	0.403	0.243	0.369
62	AGAP2 (ArfGAP with GTPase domain, ankyrin repeat and PH domain 2)	1	0.337	0.664	0.565
63	ITM2B (integral membrane protein 2B)	1	2.19	1.53	0.975
64	RPS27L (ribosomal protein S27 like)	1	1.01	-0.0576	-2.43
65	NLRX1 (NLR family member X1)	1	-0.0135	-0.478	-0.161
66	SEPHS2 (selenophosphate synthetase 2)	1	1.72	1.37	2.19
67	ZNF879 (zinc finger protein 879)	1	-0.889	-0.97	-1.28
68	SLC22A10	1	0.709	0.47	0.71
69	PLXNA4 (plexin A4)	1	2.05	1.59	1.65
70	PLXNA4 (plexin A4)	2	-1.69	-1.52	-1.41
71	DSTYK (dual serine/threonine and tyrosine protein kinase)	1	0.652	1.37	0.722
72	RIPPLY2 (ripply transcriptional repressor 2)	1	-0.386	1.35	0.74
73	LINC02551 (long independently transcribed non-coding RNA 2551)	1	-1.63	-1.24	-1.4
74	LOC400681 (retired record)	1	0.999	0.138	0.274
75	LAGE3 (L antigen family member 3)	1	0.866	0.758	0.571
76	CARNMT1 (carnosine N-methyltransferase 1)	1	0.841	-0.205	-0.0948
77	SEC24A (SEC24 homolog A, COPII component)	1	-0.384	0.565	-1.36
78	CERS4 (ceramide synthase 4)	1	-0.0471	-0.717	-0.72
79	EXT1 (exostosin glycosyltransferase 1)	1	-3.1 (active)	-1.97	-1.98
80	BIRC5 (baculoviral IAP repeat containing 5)	1	0.368	0.321	-0.116
81	DENND1B (DENN domain containing 1B)	1	1.43	0.296	0.806
82	DENND1B (DENN domain containing 1B)	2	-1.36	-1.2	-1.46
83	ADAM9 (ADAM metallopeptidase domain 9)	1	1.11	0.319	0.957
84	MCMBP (minichromosome maintenance complex binding protein)	1	0.0274	-0.591	-0.601
85	CCND2 (cyclin D2)	1	0.0117	-0.061	0.0896
86	FAM151A (family with sequence similarity 151 member A)	1	0.326	0.0886	0.477
87	XAF1 (XIAP associated factor 1)	1	-0.452	2.53	0.479

Look-ups from the entries so far.
For “robust z-score, replicate 1”, LOC400681 (retired record) is entered as 0.999
For “robust z-score, replicate 3”, ZNF607 (zinc finger protein 607) has 0.0967
Under “robust z-score, replicate 1”, MTRF1 (mitochondrial translation release factor 1) reads -1.64
Under “robust z-score, replicate 3”, KLRC4 (killer cell lectin like receptor C4) shows 0.204
ANKRD30BP3 (ANKRD30B pseudogene 3), robust z-score, replicate 2: 1.88
SEPTIN14 (septin 14), robust z-score, replicate 3: 1.03
